According to article PMC8744257:
These are yes or no findings as the source states them, for the method shown. In cells and extracts the contact can be indirect. A yes stands for co-enrichment or nearness to the bait. Other partners may have been found. For some assays here: No binding means not detected with the bait. For some assays here: Tags and fused reporters may be left off the sequences shown.

Sequences of proteins named here, by UniProt entry; tags and fusion partners are left off. Residues count along the entry.
UniProt P25705, residues 44-553: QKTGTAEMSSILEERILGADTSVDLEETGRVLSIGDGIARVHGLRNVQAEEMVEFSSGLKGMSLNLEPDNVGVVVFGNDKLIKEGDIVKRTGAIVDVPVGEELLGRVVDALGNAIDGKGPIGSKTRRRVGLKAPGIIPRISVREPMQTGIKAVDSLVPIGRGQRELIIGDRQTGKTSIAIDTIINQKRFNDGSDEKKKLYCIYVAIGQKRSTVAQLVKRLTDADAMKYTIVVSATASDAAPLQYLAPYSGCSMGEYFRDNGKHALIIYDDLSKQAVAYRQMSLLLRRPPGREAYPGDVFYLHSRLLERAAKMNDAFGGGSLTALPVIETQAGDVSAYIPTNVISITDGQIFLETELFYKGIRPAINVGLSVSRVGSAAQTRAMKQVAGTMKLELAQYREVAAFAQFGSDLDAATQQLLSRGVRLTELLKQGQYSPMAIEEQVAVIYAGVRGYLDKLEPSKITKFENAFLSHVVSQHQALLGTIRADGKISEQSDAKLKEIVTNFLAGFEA

Key:
[1] = biological target: T1, CLUH lacking TPR domain (BioID2-3xHA-CLUH∆TPR) (human) (UniProt O75153); test: proximity labelling; BioID in HCT116 CLUH KO cells stably expressing BioID2-3xHA-CLUH, BioID2-3xHA-CLUH∆TPR or BioID2-3xHA-GFP; 24 h, 50 μM biotin; streptavidin pull-down, western blot (Fig. 5B)
T1 sequence: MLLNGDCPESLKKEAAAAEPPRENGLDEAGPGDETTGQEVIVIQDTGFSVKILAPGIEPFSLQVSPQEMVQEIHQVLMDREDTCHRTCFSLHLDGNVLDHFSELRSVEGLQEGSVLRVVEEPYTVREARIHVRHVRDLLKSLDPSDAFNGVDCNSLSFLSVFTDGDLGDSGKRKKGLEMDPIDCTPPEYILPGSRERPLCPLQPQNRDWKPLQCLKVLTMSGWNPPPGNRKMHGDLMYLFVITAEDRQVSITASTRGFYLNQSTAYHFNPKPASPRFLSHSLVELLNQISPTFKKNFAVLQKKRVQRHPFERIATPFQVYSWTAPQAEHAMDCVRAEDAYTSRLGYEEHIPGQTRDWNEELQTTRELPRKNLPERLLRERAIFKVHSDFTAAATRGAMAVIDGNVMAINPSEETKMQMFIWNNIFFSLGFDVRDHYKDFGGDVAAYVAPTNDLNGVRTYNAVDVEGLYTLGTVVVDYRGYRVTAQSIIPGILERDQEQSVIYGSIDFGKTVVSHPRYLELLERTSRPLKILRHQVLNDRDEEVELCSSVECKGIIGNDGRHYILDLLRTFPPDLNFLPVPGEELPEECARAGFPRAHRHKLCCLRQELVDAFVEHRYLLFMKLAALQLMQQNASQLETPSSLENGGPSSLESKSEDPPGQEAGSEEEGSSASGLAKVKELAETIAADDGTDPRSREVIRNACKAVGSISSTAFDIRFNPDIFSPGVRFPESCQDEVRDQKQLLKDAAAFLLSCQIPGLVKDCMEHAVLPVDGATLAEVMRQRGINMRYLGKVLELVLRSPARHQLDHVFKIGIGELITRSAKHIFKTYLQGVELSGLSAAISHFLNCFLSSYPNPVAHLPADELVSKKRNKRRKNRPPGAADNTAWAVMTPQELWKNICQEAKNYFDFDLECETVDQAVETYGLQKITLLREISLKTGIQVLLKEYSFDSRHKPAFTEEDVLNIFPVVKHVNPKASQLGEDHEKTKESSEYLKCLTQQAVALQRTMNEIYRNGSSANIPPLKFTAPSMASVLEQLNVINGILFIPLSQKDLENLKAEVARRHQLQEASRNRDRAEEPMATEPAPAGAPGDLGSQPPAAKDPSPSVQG

[2] = biological target: T2, BioID2-tagged wildtype human CLUH (BioID2-3xHA-CLUH) (human) (UniProt O75153); test: as above
T2 sequence: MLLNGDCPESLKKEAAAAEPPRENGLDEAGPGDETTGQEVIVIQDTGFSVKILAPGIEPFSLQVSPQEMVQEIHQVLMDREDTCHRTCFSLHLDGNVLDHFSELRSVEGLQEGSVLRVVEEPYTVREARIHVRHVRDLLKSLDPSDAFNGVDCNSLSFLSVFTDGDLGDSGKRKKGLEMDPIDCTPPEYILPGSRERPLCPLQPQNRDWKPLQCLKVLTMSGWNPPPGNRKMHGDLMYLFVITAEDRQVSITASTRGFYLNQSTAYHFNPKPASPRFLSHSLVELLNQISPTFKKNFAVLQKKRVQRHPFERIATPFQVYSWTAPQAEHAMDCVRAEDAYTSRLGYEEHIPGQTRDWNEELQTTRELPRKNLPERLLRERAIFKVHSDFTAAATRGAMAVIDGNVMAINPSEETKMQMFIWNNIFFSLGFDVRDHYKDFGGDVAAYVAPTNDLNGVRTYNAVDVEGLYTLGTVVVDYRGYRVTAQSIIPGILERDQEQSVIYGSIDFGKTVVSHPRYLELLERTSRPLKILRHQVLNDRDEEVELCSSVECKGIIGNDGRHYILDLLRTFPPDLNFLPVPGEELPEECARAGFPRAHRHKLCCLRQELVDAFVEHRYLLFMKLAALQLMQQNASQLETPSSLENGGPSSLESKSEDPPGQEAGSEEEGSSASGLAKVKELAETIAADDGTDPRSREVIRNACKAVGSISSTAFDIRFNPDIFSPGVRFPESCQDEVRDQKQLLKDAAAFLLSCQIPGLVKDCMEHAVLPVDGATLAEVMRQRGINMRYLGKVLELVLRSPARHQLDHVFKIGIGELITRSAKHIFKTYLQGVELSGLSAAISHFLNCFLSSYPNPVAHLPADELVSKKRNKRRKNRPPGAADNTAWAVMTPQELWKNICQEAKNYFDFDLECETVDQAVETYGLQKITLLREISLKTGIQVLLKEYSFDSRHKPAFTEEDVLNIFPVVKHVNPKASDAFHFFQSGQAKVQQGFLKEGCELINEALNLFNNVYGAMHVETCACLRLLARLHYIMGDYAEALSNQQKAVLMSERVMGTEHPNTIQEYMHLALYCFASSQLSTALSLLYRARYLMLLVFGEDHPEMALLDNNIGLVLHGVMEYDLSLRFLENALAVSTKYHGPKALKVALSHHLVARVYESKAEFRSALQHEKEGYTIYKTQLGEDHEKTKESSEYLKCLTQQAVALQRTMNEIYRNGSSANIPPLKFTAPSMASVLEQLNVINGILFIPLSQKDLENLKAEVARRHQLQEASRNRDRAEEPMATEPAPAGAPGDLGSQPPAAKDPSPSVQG

binding [1]: no binding
binding [2]: binds
Substance: ATP5A (endogenous, HCT116) (from UniProt P25705 44-553)
